Test results reported in article PMC12433258, “Binding Differences of the Peptide‐Substrate–Binding Domain of Collagen Prolyl 4‐Hydroxylases I and II for Proline‐ and Hydroxyproline‐Rich Peptides” (Proteins, 2025).
Results are given in words; binding and its absence hold for the method and conditions named.

Amino acid sequences for entries named in this document (tags omitted). Residues count along the entry.
UniProt P13674, residues 160-255: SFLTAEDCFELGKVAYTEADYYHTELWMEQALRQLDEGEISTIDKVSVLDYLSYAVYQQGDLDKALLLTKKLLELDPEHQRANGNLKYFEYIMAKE

Biological target: PSB‐I^143–238 construct (peptide‐substrate–binding domain of the α‐I subunit of human collagen prolyl 4‐hydroxylase I) (human) (UniProt P13674)
Assay: SEC-MALS; PSB‐I^143–238 on Superdex 200 Increase 10/300 GL, column at +5 to +7°C, MALS and RI detectors at +20°C; both purified

“PSB‐I^143–238 construct (peptide‐substrate–binding domain of the α‐I subunit of human collagen prolyl 4‐hydroxylase I) (from UniProt P13674 160-255) (domain or fragment)” was tested, and the binding was “no binding”.
